Values quoted from earlier work as cited in US12216121B2, “Methods and compositions for spacial and temporal measurement of catalytic activity” (The University of Chicago, priority 2017, dated 2025).
Some results were stated once for a whole list of compounds, not compound by compound.

Settings: cited from earlier work

Structure (SMILES): N[C@@H](CS)C(=O)O [cysteine]
- pKa: greater than 8.0
